Reference: patent US20220306733A1
Results are given in words; binding and its absence hold for the method and conditions named. Some binding calls cover weakened binding; strength is not graded here.

Sequences of proteins named here, by UniProt entry; tags and fusion partners are left off. Residues count along the entry.
UniProt Q495A1, residues 22-244: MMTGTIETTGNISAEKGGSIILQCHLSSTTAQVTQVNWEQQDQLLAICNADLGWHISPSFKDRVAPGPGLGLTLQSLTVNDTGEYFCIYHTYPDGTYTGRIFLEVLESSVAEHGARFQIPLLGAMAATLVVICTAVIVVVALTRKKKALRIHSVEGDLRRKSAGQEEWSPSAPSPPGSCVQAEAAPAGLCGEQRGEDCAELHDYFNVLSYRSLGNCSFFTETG

B1: anti-TIGIT antibody clone 29520 (antibody, V domains shown)
VH: QVQLVESGGGLVQPGRSLRLSCAASGFTFRDYAMHWVRQAPGKGLEWVSGITWNSGLIGYADSVKGRFTISRDNAKNSLYLQMNSLRAEDTALYYCAKPVPRLRGLDVWGQGTMVTVSS
VL: DIQLTQSPSSVSASVGDRVTITCRASQGISSWLAWYQQKPGKAPKLLIYGASSLQSGVPSRFSGSGSGTDFTLTISSLQPEDFATYYCQQAFYLPWTFGGGTKVEIK
B2: anti-TIGIT antibody clone 29527 (antibody, V domains shown)
VH: QVQLVESGGGVVQPGRSLRLSCAASGFTFSSSYMHWVRQAPGKGLEWVAVIGADGSNKYYADSVEGRFTISRDNSKNTLYLQMNSLRAEDTALYYCAKPVPRRRGLDVWGQGTMVTVSS
VL: B1 VL
B3: comparative anti-TIGIT antibody 313M32 (antibody, human IgG1, V domains shown)
VH: QVQLQESGPGLVKPSETLSLTCAVSGYSITSDYAWNWIRQPPGKGLEWIGYISYSGSTSYNPSLRSRVTISRDTSKNQFFLKLSSVTAADTAVYYCARRQVGLGFAYWGQGTLVTVSS
VL: DIQMTQSPSSLSASVGDRVTITCKASQDVSTAVAWYQQKPGKAPKLLIYSASYRYTGVPSRFSGSGSGTDFTFTISSLQPEDIATYYCQQHYSTPWTFG

Key:
[1] = biological target: cynomolgus TIGIT on primary CD8+ T cells (Macaca fascicularis); assay: flow cytometry on stimulated cynomolgus PBMCs, % TIGIT-stained cells gated on live CD69+CD8+ T cells, detection with anti-human Ig (Fc gamma specific)-PE
[2] = biological target: human TIGIT on cells (Jurkat-hTIGIT, human primary T cells) (human) (UniProt Q495A1); assay: flow cytometry on PBMCs of cancer patients, MFI on gated live TIGIT+CD8+ cells, detection with anti-human Ig (Fc gamma specific)-PE
[3] = biological target: human TIGIT on cells (Jurkat-hTIGIT, human primary T cells) (human) (UniProt Q495A1); assay: flow cytometry competition on Jurkat-hTIGIT cells; cells incubated with the antibody, washed, then CD155-His at 15 ug/ml, bound CD155-His detected with anti-His-PE; blocked ligand: CD155-His
[4] = biological target: human TIGIT on cells (Jurkat-hTIGIT, human primary T cells) (human) (UniProt Q495A1); assay: flow cytometry on Jurkat-hTIGIT cells, detection with anti-human Ig (Fc gamma specific)-PE
[5] = biological target: human TIGIT on cells (Jurkat-hTIGIT, human primary T cells) (human) (UniProt Q495A1); assay: flow cytometry on Jurkat-hTIGIT
[6] = biological target: human TIGIT on cells (Jurkat-hTIGIT, human primary T cells) (human) (UniProt Q495A1); assay: flow cytometry on PBMCs of healthy human donors, MFI on gated living TIGIT+CD8+ T cells, detection with anti-human Ig (Fc gamma specific)-PE

| Binder | binding [1] | binding [2] | binding [3] | binding [4] | binding [5] | binding [6] |
| --- | --- | --- | --- | --- | --- | --- |
| B1 | binds |  |  |  |  |  |
| B2 | binds |  |  |  |  |  |
| B3 |  | binds | binds | binds | binds | binds |
